Measured values taken from patent US20150126467A1, “USE OF ALGINATE OLIGOMERS TO ENHANCE THE EFFECTS OF ANTIFUNGAL AGENTS” (AlgiIPharma AS, priority 2011, published 2015).
At least one structure is not confirmed: it was looked up by name or label, or the drawing left a doubt.

System: Candida albicans
Assay: Robotic MIC assay with asthma/COPD medicaments (Example 5)
Assay type: cell-based
Experimental: A robotic MIC Assay was performed as follows. OligoG CF-5/20 were dissolved in medium (Mueller-Hinton broth or M19 broth depending on experiment) to 1.25 times of the desired assay concentrations (2, 6 and 10%). The antifungal agents under test were dissolved in medium without OligoG CF-5/20 and in medium with OligoG CF-5/20 at a concentration of 1.25 times the highest desired assay concentrations. For experiments where the effect of adding different concentrations of Na^+ was investigated, NaCl was dissolved in medium to the desired concentrations (10, 30 and 50 mM).
Two-fold serial dilutions of antifungal agents were made in medium with different concentrations of OligoG CF-5/20, and the solutions were placed in four parallel wells in Nunc 384-well micro plates (30 μl per well in Nunc 242757 microplates). A group of 8 wells with no addition of antifungal agents for each OligoG CF-5/20 concentration was included on each microplate as growth reference. […]
The micro plates were placed in plastic bags and incubated without shaking at 34° C. The optical density at 600 nm in the microwells was measured after approximately 13, 18, 24 and 34 hours of incubation, and the relative growth yield in each well was calculated based on the growth in the reference groups. […]

In the case of `CCCC1O[C@@H]2C[C@H]3[C@@H]4CCC5=CC(=O)C=C[C@]5(C)[C@H]4[C@@H](O)C[C@]3(C)[C@]2(C(=O)CO)O1` (some centres unmarked) [budesonide], the “effect on growth of C. albicans” value (at the given concentrations, data not shown) is reported as “did not affect growth” and the “influence on the MIC values of nystatin or amphotericin B in combination with OligoG CF5/20” value (ipratropium bromide and salbutamol at 0.01 mM and 1 mM, budesonide at 0.01 mM, formoterol at 0.5 mM) is reported as “do not significantly influence”.
